In EPA's CvTdb concentration-time database:
This continues a long series; more values of the same kind are listed elsewhere.

Tests used:
Test in all cases: concentration in plasma after dosing
Mouse [1] = details: 5 h; dosed: 2-Hydroxy-4-methoxybenzophenone; 250 mg/kg; oral; Male; B6C3F1
Mouse [2] = details: 5 h; dosed: 2-Hydroxy-4-methoxybenzophenone; 250 mg/kg; oral; Female; B6C3F1
Mouse [3] = details: 1.5 h; dosed: 2-Hydroxy-4-methoxybenzophenone; 50 mg/kg; iv; Male; B6C3F1
Rat [4] = details: 16 h; dosed: 2-Hydroxy-4-methoxybenzophenone; 500 mg/kg; oral; Female; F344
Mouse [5] = details: dosed: 2-Hydroxy-4-methoxybenzophenone, 100 mg/kg, oral, Female, B6C3F1
Mouse [6] = details: 0.5 h; dosed: 2-Hydroxy-4-methoxybenzophenone; 250 mg/kg; oral; Female; B6C3F1
Mouse [7] = details: 1 h; dosed: 2-Hydroxy-4-methoxybenzophenone; 50 mg/kg; iv; Female; B6C3F1
Mouse [8] = details: dosed: 2-Hydroxy-4-methoxybenzophenone, 100 mg/kg, oral, Male, B6C3F1
Mouse [9] = details: 0.5 h; dosed: 2-Hydroxy-4-methoxybenzophenone; 250 mg/kg; oral; Female; B6C3F1; remark: listed apart in the source
Rat [10] = details: 2 h; dosed: 2-Hydroxy-4-methoxybenzophenone; 250 mg/kg; oral; Male; F344
Mouse [11] = details: 10 h; dosed: 2-Hydroxy-4-methoxybenzophenone; 500 mg/kg; oral; Female; B6C3F1
Mouse [12] = details: 4 h; dosed: 2-Hydroxy-4-methoxybenzophenone; 50 mg/kg; iv; Female; B6C3F1
Mouse [13] = details: 1 h; dosed: 2-Hydroxy-4-methoxybenzophenone; 250 mg/kg; oral; Female; B6C3F1
Mouse [14] = details: 5 h; dosed: 2-Hydroxy-4-methoxybenzophenone; 250 mg/kg; oral; Male; B6C3F1; remark: listed apart in the source
Rat [15] = details: dosed: 2-Hydroxy-4-methoxybenzophenone, 500 mg/kg, oral, Male, F344
Mouse [16] = details: 0.5 h; dosed: 2-Hydroxy-4-methoxybenzophenone; 250 mg/kg; oral; Male; B6C3F1
Rat [17] = details: dosed: 2-Hydroxy-4-methoxybenzophenone, 8 mg/kg, iv, Female, F344
Mouse [18] = details: 0.5 h; dosed: 2-Hydroxy-4-methoxybenzophenone; 250 mg/kg; oral; Male; B6C3F1; remark: listed apart in the source
Rat [19] = details: dosed: 2-Hydroxy-4-methoxybenzophenone, 100 mg/kg, oral, Female, F344
Rat [20] = details: dosed: 2-Hydroxy-4-methoxybenzophenone, 500 mg/kg, oral, Female, F344
Rat [21] = details: dosed: 2-Hydroxy-4-methoxybenzophenone, 100 mg/kg, oral, Female, F344; remark: listed apart in the source
Mouse [22] = details: dosed: 2-Hydroxy-4-methoxybenzophenone, 100 mg/kg, oral, Female, B6C3F1; remark: listed apart in the source
Mouse [23] = details: 5 min; dosed: 2-Hydroxy-4-methoxybenzophenone; 250 mg/kg; oral; Female; B6C3F1
Rat [24] = details: dosed: 2-Hydroxy-4-methoxybenzophenone, 8 mg/kg, iv, Female, F344; remark: listed apart in the source
Mouse [25] = details: 7 h; dosed: 2-Hydroxy-4-methoxybenzophenone; 250 mg/kg; oral; Male; B6C3F1
Mouse [26] = details: 1 h; dosed: 2-Hydroxy-4-methoxybenzophenone; 250 mg/kg; oral; Male; B6C3F1
Rat [27] = details: 16 h; dosed: 2-Hydroxy-4-methoxybenzophenone; 500 mg/kg; oral; Male; F344
Rat [28] = details: dosed: Perfluorohexanoic Acid, 160 mg/kg, oral, Male, Harlan Sprague Dawley
Rat [29] = details: 1.5 h; dosed: Perfluorohexanoic Acid; 40 mg/kg; Male; F344
Rat [30] = details: dosed: Perfluorohexanoic Acid, 40 mg/kg, Male, F344
Rat [31] = details: dosed: Perfluorohexanoic Acid, 160 mg/kg, oral, Female, Harlan Sprague Dawley
Rat [32] = details: 1 h; dosed: Perfluorohexanoic Acid; 80 mg/kg; oral; Female; Harlan Sprague Dawley
Rat [33] = details: dosed: Perfluorohexanoic Acid, 160 mg/kg, oral, Male, Harlan Sprague Dawley; remark: listed apart in the source
Rat [34] = details: 1 h; dosed: Perfluorohexanoic Acid; 40 mg/kg; Female; Harlan Sprague Dawley

O=C(c1ccccc1)c1ccc(O)cc1O [2,4-Dihydroxybenzophenone]
Details | concentration in plasma [ng/mL]
Mouse [1] | 163
Mouse [2] | 34.2
Mouse [3] | 323
Mouse [6] | 881
Mouse [7] | 103
Mouse [9] | 869
Mouse [11] | 7.99
Mouse [12] | 33.9
Mouse [13] | 207
Mouse [14] | 200
Rat [4] | 120
Rat [10] | 109

concentration in plasma [ng/mL]
Details | 0.5 h | 0.75 h | 1 h | 1.5 h | 4 h | 5 h | 5 min
Mouse [5] | 151 | 97.5 | 92.9 | 52.2 | – | 42.7 | 203
Mouse [8] | 323 | 316 | 282 | 213 | 170 | 115 | 330

COc1ccc(C(=O)c2ccccc2)c(O)c1 [2-Hydroxy-4-methoxybenzophenone]
Details | concentration in plasma [ng/mL]
Mouse [22], 0.5 h | 40.8
Mouse [22], 0.75 h | 118
Mouse [22], 1 h | 37.1
Mouse [22], 1.5 h | 19
Mouse [22], 5 h | 7.31
Mouse [22], 5 min | 40.7
Mouse [22], 6 h | 39.9
Rat [15], 0.5 h | 163
Rat [15], 12 h | 46.5
Rat [17], 0.5 h | 687
Rat [17], 6 h | 18.6
Rat [19], 0.5 h | 38.7
Rat [19], 5 h | 9.67
Rat [20], 1 h | 3600
Rat [20], 8 h | 113
Rat [21], 0.5 h | 92.5
Rat [21], 5 h | 6.28
Rat [24], 5 min | 1070
Rat [24], 10 h | 30.7

Details | concentration in plasma [ng/mL]
Mouse [16] | 246
Mouse [18] | 231
Mouse [23] | 20.6
Mouse [25] | 16.6
Mouse [26] | 107
Rat [27] | 28.5

O=C(O)C(F)(F)C(F)(F)C(F)(F)C(F)(F)C(F)(F)F [Perfluorohexanoic Acid]
Details | concentration in plasma [ng/mL]
Rat [28], 0.5 h | 247000
Rat [28], 9 h | 8380
Rat [30], 3 h | 1210
Rat [30], 5 min | 270000
Rat [31], 0.25 h | 131000
Rat [31], 6 h | 21100
Rat [33], 0.75 h | 247000
Rat [33], 12 h | 7430

Details | concentration in plasma [ng/mL]
Rat [29] | 3480
Rat [32] | 71400
Rat [34] | 25500
